The text below walks through data of PMC7990853.

Results are given in words; binding and its absence hold for the method and conditions named. Binding seen in cells or lysates may run through a third protein. Some binding calls cover weakened binding; strength is not graded here. Tags and fused reporters may be left off the sequences shown.

For the test, the target named is T1, mCherry tagged DDHD domain of RDGB (mCherry::DDHD) (Drosophila) (UniProt P43125).
T1 sequence: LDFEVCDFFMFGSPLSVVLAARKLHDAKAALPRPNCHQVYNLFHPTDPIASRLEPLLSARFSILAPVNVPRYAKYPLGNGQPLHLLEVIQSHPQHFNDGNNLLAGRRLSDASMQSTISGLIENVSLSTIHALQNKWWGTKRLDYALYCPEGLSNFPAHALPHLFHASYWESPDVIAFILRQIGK
Nature of the test: co-IP; S2R+ cells co-transfected with mCherry::DDHD and LNS2::GFP for 48 h; lysis in 50 mM Tris-Cl, 1 mM EGTA, 1 mM EDTA, 1% Triton X-100, 50 mM NaF, 0.27 M sucrose, 0.1% beta-mercaptoethanol; immunoprecipitation with anti-mCherry antibody overnight at 4°C, Protein-G sepharose; control IgG; blot for GFP.

B1: GFP tagged LNS2 domain of RDGB (LNS2::GFP) (domain or fragment, UniProt P43125 947-1259)
chain: VKLKNVAANHRANDVIVQEGREQRLNARFMYGPLDMITLHGEKVDVHIMKDPPAGEWTFLSTEVTDKNGRISYSIPDQVSLGYGIYPVKMVVRGDHTSVDCYMAVVPPLTECVVFSIDGSFTASMSVTGRDPKVRAGAVDVCRHWQELGYLLIYITGRPDMQQQRVVSWLSQHNFPHGLISFADGLSTDPLGHKTAYLNNLVQNHGISITAAYGSSKDISVYTNVGMRTDQIFIVGKVGKKLQSNATVLSDGYAAHLAGLQAVGGSRPAKGNARMVIPRGCFNLPGQTANPRRRRYLERKTVSSCCLMVFQTT
In the case of B1, the binding entry is given as “binds”.
